Measured values as given in the supplement of paper PMC10849652.
This is one part of the list.

Amino acid sequences for entries named in this document (tags omitted). A change or cut given only in a name is not applied to a line headed by its entry.
UniProt P32119: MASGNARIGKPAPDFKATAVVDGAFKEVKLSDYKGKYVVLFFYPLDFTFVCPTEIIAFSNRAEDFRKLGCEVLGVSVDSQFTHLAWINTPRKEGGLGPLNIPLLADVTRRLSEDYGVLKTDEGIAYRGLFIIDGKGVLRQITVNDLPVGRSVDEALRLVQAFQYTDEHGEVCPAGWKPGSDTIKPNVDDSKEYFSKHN
UniProt Q13427: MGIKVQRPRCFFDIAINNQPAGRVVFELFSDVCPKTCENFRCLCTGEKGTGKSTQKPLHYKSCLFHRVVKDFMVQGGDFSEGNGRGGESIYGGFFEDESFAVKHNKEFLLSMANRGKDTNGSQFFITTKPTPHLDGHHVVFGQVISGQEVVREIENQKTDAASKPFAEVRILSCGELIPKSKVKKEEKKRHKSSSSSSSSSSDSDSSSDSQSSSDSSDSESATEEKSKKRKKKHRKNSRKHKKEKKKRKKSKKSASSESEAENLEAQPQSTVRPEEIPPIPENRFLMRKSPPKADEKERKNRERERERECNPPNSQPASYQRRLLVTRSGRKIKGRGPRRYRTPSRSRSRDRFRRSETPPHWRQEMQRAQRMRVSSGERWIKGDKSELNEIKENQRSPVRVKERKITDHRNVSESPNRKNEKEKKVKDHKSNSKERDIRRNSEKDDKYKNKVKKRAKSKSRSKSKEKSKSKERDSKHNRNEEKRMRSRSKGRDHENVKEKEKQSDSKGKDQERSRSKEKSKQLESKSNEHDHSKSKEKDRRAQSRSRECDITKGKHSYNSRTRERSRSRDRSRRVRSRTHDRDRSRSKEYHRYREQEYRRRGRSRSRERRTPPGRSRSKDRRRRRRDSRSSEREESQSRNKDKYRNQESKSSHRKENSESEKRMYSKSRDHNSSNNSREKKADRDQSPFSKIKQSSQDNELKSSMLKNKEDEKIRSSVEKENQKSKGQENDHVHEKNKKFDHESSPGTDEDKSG
UniProt Q66LE6: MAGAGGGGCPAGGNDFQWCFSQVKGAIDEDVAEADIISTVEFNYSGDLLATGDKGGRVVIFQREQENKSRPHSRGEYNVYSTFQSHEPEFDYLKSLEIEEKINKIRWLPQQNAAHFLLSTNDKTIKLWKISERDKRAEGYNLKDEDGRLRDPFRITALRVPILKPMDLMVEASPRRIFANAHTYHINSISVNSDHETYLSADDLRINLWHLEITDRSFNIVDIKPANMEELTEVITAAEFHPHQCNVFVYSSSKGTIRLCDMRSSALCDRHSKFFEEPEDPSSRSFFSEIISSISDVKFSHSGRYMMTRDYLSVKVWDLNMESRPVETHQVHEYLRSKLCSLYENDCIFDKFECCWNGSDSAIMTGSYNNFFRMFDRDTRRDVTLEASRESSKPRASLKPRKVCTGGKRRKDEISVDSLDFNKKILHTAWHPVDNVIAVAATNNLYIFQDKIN
UniProt Q9Y3C6: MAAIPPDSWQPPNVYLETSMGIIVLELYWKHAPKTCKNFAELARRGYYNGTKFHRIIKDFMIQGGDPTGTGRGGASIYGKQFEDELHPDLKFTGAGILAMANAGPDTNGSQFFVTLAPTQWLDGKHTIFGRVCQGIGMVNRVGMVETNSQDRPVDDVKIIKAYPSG
UniProt P49593: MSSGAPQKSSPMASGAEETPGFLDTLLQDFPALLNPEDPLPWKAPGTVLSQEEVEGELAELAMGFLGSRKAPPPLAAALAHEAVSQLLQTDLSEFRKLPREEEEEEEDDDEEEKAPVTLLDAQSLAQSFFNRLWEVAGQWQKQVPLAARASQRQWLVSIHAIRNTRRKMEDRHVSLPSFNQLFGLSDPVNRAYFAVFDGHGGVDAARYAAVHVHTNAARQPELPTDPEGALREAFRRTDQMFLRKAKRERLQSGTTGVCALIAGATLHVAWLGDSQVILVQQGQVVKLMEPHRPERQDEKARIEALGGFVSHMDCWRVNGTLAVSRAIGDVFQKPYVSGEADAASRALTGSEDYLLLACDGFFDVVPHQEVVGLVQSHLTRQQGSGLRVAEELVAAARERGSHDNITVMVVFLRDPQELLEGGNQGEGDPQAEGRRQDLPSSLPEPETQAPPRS
UniProt Q86XN7: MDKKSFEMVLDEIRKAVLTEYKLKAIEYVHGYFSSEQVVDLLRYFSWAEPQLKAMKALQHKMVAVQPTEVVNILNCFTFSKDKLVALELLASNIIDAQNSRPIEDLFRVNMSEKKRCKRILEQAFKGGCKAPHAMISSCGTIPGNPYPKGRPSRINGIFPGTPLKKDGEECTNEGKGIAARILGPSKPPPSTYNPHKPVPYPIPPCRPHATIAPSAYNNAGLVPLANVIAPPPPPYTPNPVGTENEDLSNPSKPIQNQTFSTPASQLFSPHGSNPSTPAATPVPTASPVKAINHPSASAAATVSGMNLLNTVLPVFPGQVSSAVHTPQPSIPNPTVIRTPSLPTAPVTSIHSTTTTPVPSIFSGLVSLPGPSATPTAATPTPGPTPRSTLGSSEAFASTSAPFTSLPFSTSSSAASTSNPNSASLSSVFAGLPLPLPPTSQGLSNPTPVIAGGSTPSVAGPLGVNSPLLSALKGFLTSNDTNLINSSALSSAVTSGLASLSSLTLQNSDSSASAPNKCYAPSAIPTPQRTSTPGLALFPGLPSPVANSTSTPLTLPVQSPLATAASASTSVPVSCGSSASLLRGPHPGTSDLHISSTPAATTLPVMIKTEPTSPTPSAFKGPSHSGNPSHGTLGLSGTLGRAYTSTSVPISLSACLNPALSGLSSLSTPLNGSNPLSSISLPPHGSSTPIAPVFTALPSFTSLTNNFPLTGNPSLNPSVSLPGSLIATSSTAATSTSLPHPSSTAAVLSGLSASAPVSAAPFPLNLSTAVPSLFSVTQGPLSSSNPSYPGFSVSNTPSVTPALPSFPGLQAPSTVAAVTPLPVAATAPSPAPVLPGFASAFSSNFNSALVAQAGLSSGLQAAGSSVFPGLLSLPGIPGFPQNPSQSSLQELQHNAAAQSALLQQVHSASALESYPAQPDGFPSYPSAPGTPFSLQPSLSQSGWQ
UniProt Q15173: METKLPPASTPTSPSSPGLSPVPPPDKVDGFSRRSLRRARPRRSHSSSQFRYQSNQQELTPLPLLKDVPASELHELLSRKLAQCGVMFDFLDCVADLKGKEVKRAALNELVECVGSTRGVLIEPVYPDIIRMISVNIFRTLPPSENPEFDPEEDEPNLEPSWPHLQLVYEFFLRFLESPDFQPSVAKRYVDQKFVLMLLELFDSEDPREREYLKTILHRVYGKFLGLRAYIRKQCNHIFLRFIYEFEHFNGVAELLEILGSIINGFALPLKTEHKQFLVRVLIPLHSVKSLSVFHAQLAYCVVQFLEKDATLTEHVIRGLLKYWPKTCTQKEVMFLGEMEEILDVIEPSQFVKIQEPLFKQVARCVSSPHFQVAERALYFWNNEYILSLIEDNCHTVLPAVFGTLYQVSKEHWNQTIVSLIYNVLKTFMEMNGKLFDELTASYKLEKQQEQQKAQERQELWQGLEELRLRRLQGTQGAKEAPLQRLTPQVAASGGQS
UniProt Q8WWY3: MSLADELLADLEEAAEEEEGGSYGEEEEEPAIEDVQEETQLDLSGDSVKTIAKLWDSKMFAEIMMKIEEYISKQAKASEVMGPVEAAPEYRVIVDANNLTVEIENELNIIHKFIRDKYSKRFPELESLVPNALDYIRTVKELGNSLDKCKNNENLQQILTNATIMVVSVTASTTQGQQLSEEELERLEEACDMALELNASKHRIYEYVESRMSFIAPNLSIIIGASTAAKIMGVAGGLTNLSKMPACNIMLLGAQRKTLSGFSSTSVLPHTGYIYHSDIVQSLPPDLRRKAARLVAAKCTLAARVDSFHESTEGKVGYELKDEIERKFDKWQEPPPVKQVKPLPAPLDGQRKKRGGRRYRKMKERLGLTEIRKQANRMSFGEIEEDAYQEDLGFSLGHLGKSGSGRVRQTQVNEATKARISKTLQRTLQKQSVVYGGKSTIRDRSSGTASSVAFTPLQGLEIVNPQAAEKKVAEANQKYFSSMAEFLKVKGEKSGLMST
UniProt O95685: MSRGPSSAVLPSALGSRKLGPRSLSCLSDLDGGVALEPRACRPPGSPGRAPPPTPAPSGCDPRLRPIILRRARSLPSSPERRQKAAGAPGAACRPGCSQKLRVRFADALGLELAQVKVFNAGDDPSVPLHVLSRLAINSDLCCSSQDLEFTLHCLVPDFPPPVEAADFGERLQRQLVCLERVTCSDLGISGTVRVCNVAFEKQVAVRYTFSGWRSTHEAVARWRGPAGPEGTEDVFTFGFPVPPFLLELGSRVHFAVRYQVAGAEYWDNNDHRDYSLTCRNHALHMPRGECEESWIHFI
UniProt Q8TF05: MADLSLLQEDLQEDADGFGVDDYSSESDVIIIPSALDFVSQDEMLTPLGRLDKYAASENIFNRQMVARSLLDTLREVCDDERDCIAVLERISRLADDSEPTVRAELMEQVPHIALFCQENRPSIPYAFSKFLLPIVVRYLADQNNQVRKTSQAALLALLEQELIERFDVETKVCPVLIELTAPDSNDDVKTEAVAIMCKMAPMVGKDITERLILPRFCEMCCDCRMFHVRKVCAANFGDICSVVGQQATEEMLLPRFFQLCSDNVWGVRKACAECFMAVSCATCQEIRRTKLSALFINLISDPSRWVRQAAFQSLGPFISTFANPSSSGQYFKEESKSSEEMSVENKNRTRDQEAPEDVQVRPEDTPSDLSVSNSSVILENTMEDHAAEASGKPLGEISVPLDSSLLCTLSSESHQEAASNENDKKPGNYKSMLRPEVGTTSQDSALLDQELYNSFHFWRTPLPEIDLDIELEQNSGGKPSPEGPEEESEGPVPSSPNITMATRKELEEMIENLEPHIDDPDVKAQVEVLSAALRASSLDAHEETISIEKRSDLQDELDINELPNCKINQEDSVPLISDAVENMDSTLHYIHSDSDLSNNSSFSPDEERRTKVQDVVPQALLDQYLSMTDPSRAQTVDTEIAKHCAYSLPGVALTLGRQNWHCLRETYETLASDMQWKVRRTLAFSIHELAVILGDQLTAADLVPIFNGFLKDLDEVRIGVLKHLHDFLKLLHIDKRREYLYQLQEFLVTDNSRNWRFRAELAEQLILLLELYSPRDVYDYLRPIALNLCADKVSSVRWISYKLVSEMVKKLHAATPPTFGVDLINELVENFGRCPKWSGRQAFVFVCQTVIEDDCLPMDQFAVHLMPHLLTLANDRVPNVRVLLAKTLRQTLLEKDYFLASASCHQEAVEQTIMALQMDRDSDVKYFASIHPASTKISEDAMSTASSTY
UniProt Q9UMS4: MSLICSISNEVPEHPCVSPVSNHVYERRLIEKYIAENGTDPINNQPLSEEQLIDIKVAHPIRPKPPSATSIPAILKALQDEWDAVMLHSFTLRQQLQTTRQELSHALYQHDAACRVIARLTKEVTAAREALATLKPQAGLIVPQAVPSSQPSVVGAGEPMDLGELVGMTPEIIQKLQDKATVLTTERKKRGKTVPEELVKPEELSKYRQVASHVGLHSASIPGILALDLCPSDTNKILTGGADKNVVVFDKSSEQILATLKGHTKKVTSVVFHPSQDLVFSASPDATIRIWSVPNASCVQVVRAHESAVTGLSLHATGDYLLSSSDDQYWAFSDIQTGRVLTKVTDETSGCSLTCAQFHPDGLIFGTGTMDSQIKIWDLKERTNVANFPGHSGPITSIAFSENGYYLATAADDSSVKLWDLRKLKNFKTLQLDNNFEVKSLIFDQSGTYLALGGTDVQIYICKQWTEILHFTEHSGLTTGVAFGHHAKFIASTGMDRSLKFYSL
UniProt P30405: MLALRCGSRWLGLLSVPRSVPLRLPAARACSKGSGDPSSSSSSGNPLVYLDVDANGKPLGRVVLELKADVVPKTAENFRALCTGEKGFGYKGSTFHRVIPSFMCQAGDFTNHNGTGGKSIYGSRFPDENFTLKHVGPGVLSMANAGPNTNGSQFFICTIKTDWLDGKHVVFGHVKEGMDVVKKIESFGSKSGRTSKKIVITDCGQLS

Compound: O=C(O)c1ccc2c(c1)nc(Nc1cccc(Cl)c1)c1ccncc12 [silmitasertib]
Assay: log2 fold change, soluble protein after heating vs DMSO (PISA); higher = thermal stabilisation; K562 lysate, 10 uM; active = over 0.2 and 3.5 SD of the protein, either way, in both replicates (recomputed)
Summary of the method: (§1)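 Quantification was by TMTpro 16plex LC-MS/MS with equalised channel sums, applied to the supernatant after 21,000xg for 90 min. Samples were crude K562 extract at 1 mg/mL protein in PBS pH 7.4 with 1 mM MgCl2, treated with 10 μM compound for 30 min, heated for 3 min across 48°C-58°C, pooled and brought to 0.5% NP-40 at 4°C. Values are log-two fold changes in thermal stability relative to solvent controls, from duplicates.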

log2 fold change, inactive:
PRKD2 isoform 3 (UniProt Q9BZL6) 0.051
PPP1R12C isoform 4 (UniProt Q9BZL4) 0.009
PPP5C (UniProt P53041) -0.012
PRKCSH (UniProt P14314) -0.015
PPM1H (UniProt Q9ULR3) -0.05
PPP2R5E (UniProt Q16537) 0.031
PPP2R1A (UniProt P30153) 0.017
PPP2R5C isoform 2 (UniProt Q13362) 0.015
PRPF18 (UniProt Q99633) -0.007
PPP1R14A (UniProt Q96A00) -0.004
PRKCA (UniProt P17252) 0.044
PROSER2 (UniProt Q86WR7) -0.008
PRDX2 (UniProt P32119) -0.026
PROSER3 (UniProt Q2NL68) 0.146
PPIG (UniProt Q13427) -0.109
PPP2R2D (UniProt Q66LE6) 0.055
PPP4C (UniProt P60510) 0.027
PPP3CC (UniProt P48454) 0.004
PPME1 isoform 4 (UniProt Q9Y570) 0.013
PRAME (UniProt P78395) 0.043
PPIL1 (UniProt Q9Y3C6) 0.029
PRDM2 (UniProt Q13029) 0.18
PPP2CB (UniProt P62714) 0
PPP1CB (UniProt P62140) -0.001
PPM1F (UniProt P49593) 0.042
PPP1R9B (UniProt Q96SB3) 0.035
PROSER1 (UniProt Q86XN7) -0.091
PPP2R5B (UniProt Q15173) -0.007
PRPF31 (UniProt Q8WWY3) 0.005
PPP1R3D (UniProt O95685) 0.037
PPP4R1 (UniProt Q8TF05) 0.002
PRPF19 (UniProt Q9UMS4) -0.01
PRKAR1B (UniProt P31321) 0.058
PPP6C isoform 3 (UniProt O00743) 0.027
PPP6R1 (UniProt Q9UPN7) 0.057
PPWD1 (UniProt Q96BP3) -0.036
PPIF (UniProt P30405) -0.016
PRKAR2B (UniProt P31323) 0.009

Compound: O=C1NC(=O)C(c2cnc3ccccn23)=C1c1cn2c3c(cc(F)cc13)CN(C(=O)N1CCCCC1)CC2
Assay: as above
Summary of the method: as §1

log2 fold change, inactive:
PRKD2 isoform 3 (UniProt Q9BZL6) 0.088
PPP1R12C isoform 4 (UniProt Q9BZL4) 0.004
PPP5C (UniProt P53041) -0.024
PRKCSH (UniProt P14314) -0.001
PPM1H (UniProt Q9ULR3) -0.045
PPP2R5E (UniProt Q16537) 0.021
PPP2R1A (UniProt P30153) -0.017
PPP2R5C isoform 2 (UniProt Q13362) 0.086
PRPF18 (UniProt Q99633) 0.032
PPP1R14A (UniProt Q96A00) 0.016
PRKCA (UniProt P17252) 0.087
PROSER2 (UniProt Q86WR7) -0.027
PRDX2 (UniProt P32119) 0.009
PROSER3 (UniProt Q2NL68) 0.01
PPIG (UniProt Q13427) 0.071
PPP2R2D (UniProt Q66LE6) -0.022
PPP4C (UniProt P60510) -0.03
PPP3CC (UniProt P48454) 0.029
PPME1 isoform 4 (UniProt Q9Y570) 0.005
PRAME (UniProt P78395) 0.004
PPIL1 (UniProt Q9Y3C6) -0.032
PPP2CB (UniProt P62714) 0.006
PPP1CB (UniProt P62140) -0.046
PPM1F (UniProt P49593) 0
PPP1R9B (UniProt Q96SB3) 0
PPP2R5B (UniProt Q15173) -0.065
PRPF31 (UniProt Q8WWY3) -0.029
PPP1R3D (UniProt O95685) -0.016
PPP4R1 (UniProt Q8TF05) -0.004
PRPF19 (UniProt Q9UMS4) -0.028
PRKAR1B (UniProt P31321) -0.057
PPP6C isoform 3 (UniProt O00743) -0.014
PPP6R1 (UniProt Q9UPN7) -0.004
PPWD1 (UniProt Q96BP3) -0.014
PPIF (UniProt P30405) 0.017
PRKAR2B (UniProt P31323) 0.025
